PubChem BioAssay AID602196 – INSERM | 2012

- Aim: 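Knock-downs that protect lung cancer cells from cisplatin or sensitise them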
- Cell system: human A549 lung cancer cells
- Reagent: siRNA pair against human genes
- Duration: 48 h transfection before cisplatin; time from cisplatin to read-out not stated
- Treatment: cisplatin at a dose killing half of control-siRNA cells; exact dose and duration not given
- Measured: 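Shift in cisplatin death relative to control siRNA, from -50 (all cells die) to +50 (no cells die); siRNAs harmful on their own scored 0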
- Scale: two-siRNA summed score (-2 to +2): higher = both siRNAs protect from cisplatin killing; -2 means both sensitise; mean protection from cisplatin (shift in death) and protection from cisplatin (shift in death), siRNA C and protection from cisplatin (shift in death), siRNA D: higher = protection from cisplatin killing
- Rule for the call: 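Each siRNA scores 0 if harmful alone by LDH or WST-1, otherwise +1 if it reduces and -1 if it increases cisplatin killing; a gene is active when both siRNAs agree (sum +2 or -2)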
- Meaning of the calls: active = both siRNAs shift cisplatin killing the same way; inactive = no consistent shift, or siRNA harmful alone
In all, the deposit lists about 23,000 reagents; shown is a part drawn at random. 455 of all reagents (2%) count as active. 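Active includes both protection and sensitisation; some change values fall well beyond the stated -50 to +50 range.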 No sequences are given here. Not stated in the record: the amount of reagent.

no.	target	two-siRNA summed score (-2 to +2)	mean protection from cisplatin (shift in death) (%)	protection from cisplatin (shift in death), siRNA C (%)	protection from cisplatin (shift in death), siRNA D (%)	Outcome
1	LINC00474	0	-1	7.5	-9.5	inactive
2	H2BC7	0	8.1	10.2	6	inactive
3	LOC440542	1	12.9	9.2	16.6	inactive
4	RBM15B	1	3.3	-2.4	8.9	inactive
5	ING1	0	-4	-12.5	4.5	inactive
6	LOC388154	0	16.3	20.8	11.8	inactive
7	TP73	0	15	13.3	16.8	inactive
8	LOC254439	0	6.6	3.2	10.1	inactive
9	PPIG	-1	-2.3	26.5	-31.1	inactive
10	RPLP1	0	20.5	26.7	14.2	inactive
11	TTC13	0	2	-5.2	9.2	inactive
12	INA	1	8.8	3.6	14	inactive
13	LOC441341	1	4.9	-4.8	14.7	inactive
14	C8B	1	5.5	11.6	-0.6	inactive
15	GPR37L1	0	-1.1	-0.5	-1.8	inactive
16	LOC253665	0	12.9	6.4	19.5	inactive
17	LOC392487	0	7.3	-2.1	16.6	inactive
18	SLC24A5	0	15.6	16.2	15	inactive
19	SLC4A9	2	20.1	15.6	24.6	active
20	TNFSF4	0	3.4	-1.5	8.3	inactive
21	LOC441047	0	11.2	8.8	13.5	inactive
22	ZBTB1	0	9.7	10.2	9.1	inactive
23	RRAGB	2	18	22.8	13.2	active
24	LOC387777	0	14.5	20.4	8.6	inactive
25	LAMTOR5	1	17.2	6.3	28	inactive
26	NPTX2	0	0.1	10.9	-10.8	inactive
27	NCF1	0	1.2	-6.6	8.9	inactive
28	UGT2B4	0	7.5	3.1	11.9	inactive
29	OR6C4	0	12.3	13.6	11	inactive
30	ACSM3	0	22.2	25.1	19.3	inactive
31	SLC1A5	0	6.2	11.2	1.3	inactive

In a second layout: entries from further up
{"target": "TNFSF4", "two-siRNA summed score (-2 to +2)": 0, "mean protection from cisplatin (shift in death) (%)": 3.4, "protection from cisplatin (shift in death), siRNA C (%)": -1.5, "protection from cisplatin (shift in death), siRNA D (%)": 8.3, "Outcome": "inactive"}
{"target": "LOC441047", "two-siRNA summed score (-2 to +2)": 0, "mean protection from cisplatin (shift in death) (%)": 11.2, "protection from cisplatin (shift in death), siRNA C (%)": 8.8, "protection from cisplatin (shift in death), siRNA D (%)": 13.5, "Outcome": "inactive"}
{"target": "ZBTB1", "two-siRNA summed score (-2 to +2)": 0, "mean protection from cisplatin (shift in death) (%)": 9.7, "protection from cisplatin (shift in death), siRNA C (%)": 10.2, "protection from cisplatin (shift in death), siRNA D (%)": 9.1, "Outcome": "inactive"}
{"target": "RRAGB", "two-siRNA summed score (-2 to +2)": 2, "mean protection from cisplatin (shift in death) (%)": 18, "protection from cisplatin (shift in death), siRNA C (%)": 22.8, "protection from cisplatin (shift in death), siRNA D (%)": 13.2, "Outcome": "active"}
{"target": "LOC387777", "two-siRNA summed score (-2 to +2)": 0, "mean protection from cisplatin (shift in death) (%)": 14.5, "protection from cisplatin (shift in death), siRNA C (%)": 20.4, "protection from cisplatin (shift in death), siRNA D (%)": 8.6, "Outcome": "inactive"}
{"target": "LAMTOR5", "two-siRNA summed score (-2 to +2)": 1, "mean protection from cisplatin (shift in death) (%)": 17.2, "protection from cisplatin (shift in death), siRNA C (%)": 6.3, "protection from cisplatin (shift in death), siRNA D (%)": 28, "Outcome": "inactive"}
{"target": "NPTX2", "two-siRNA summed score (-2 to +2)": 0, "mean protection from cisplatin (shift in death) (%)": 0.1, "protection from cisplatin (shift in death), siRNA C (%)": 10.9, "protection from cisplatin (shift in death), siRNA D (%)": -10.8, "Outcome": "inactive"}
{"target": "NCF1", "two-siRNA summed score (-2 to +2)": 0, "mean protection from cisplatin (shift in death) (%)": 1.2, "protection from cisplatin (shift in death), siRNA C (%)": -6.6, "protection from cisplatin (shift in death), siRNA D (%)": 8.9, "Outcome": "inactive"}
{"target": "UGT2B4", "two-siRNA summed score (-2 to +2)": 0, "mean protection from cisplatin (shift in death) (%)": 7.5, "protection from cisplatin (shift in death), siRNA C (%)": 3.1, "protection from cisplatin (shift in death), siRNA D (%)": 11.9, "Outcome": "inactive"}

The results go on.
no.	target	two-siRNA summed score (-2 to +2)	mean protection from cisplatin (shift in death) (%)	protection from cisplatin (shift in death), siRNA C (%)	protection from cisplatin (shift in death), siRNA D (%)	Outcome
32	HMCES	0	0.1	7.8	-7.5	inactive
33	LOC389442	0	1.9	11.9	-8.2	inactive
34	LOC400622	0	2.3	4.2	0.5	inactive
35	MUC1	1	-0.3	-12.3	11.7	inactive
36	CCDC102A	0	-4.3	11.3	-19.8	inactive
37	QTMAN	0	11.2	10.2	12.1	inactive
38	ABCF2	-1	-7.5	3.8	-18.8	inactive
39	GOLGA5	0	7.5	16.8	-1.9	inactive
40	EXTL1	1	11	23.4	-1.4	inactive
41	GLO1	-1	-8.8	-8.9	-8.7	inactive
42	CSPG5	0	2.2	5	-0.6	inactive
43	CALHM4	0	7.2	-8.9	23.4	inactive
44	PSMA2	0	-1.7	-11.7	8.3	inactive
45	LOC442522	1	14.2	21.3	7	inactive
46	LOC441833	1	12.9	12.2	13.6	inactive
47	STAP1	0	-8.4	-0.2	-16.5	inactive
48	PRAP1	0	10.3	9.2	11.4	inactive
49	LOC107986845	1	13.3	15	11.6	inactive
50	MIR600HG	0	-6	-1.8	-10.2	inactive
51	UGT1A4	0	21.3	2.6	40	inactive
52	TRMT44	0	8	8.5	7.6	inactive
53	HMHB1	0	-1	11.6	-13.6	inactive
54	RSAD2	0	-6.6	4.8	-18	inactive
55	ENSA	0	-2.1	-1.7	-2.4	inactive
56	GLRX3	-1	-15.6	5.8	-37	inactive
57	CRYGEP	0	6.1	0.1	12.1	inactive
